Among the data in paper PMC8956313, “Biological investigation of N-methyl thiosemicarbazones as antimicrobial agents and bacterial carbonic anhydrases inhibitors” (Journal of Enzyme Inhibition and Medicinal Chemistry, 2022) are Ki values, retold here.

The target in assay [1] is T1, HpαCA (Helicobacter pylori, UniProt O25798).
T1 construct: gene HP_1186; recombinant, expressed in E. coli (DE3), purified
T1 sequence (O25798 19-202): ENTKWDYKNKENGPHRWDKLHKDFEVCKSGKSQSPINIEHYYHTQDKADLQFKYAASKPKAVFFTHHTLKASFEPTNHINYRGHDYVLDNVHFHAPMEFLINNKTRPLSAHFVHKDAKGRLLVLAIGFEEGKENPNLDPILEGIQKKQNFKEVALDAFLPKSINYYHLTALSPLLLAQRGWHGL
Kind of assay: stopped-flow CO2 hydrase assay. The format is biochemical. As to conditions: HEPES pH 7.40, 20 mM Na2SO4, 15 min preincubation, room temperature.

For assay [2], the target named is T2, SauβCA.
T2 construct: gene SauBCA
Conditions: TRIS pH 8.30, 20 mM Na2SO4, 15 min preincubation, room temperature.

As to `CC(=O)Nc1nnc(S(N)(=O)=O)s1` [AAZ, acetazolamide], the inhibitory constant (Ki) in assay [1] was determined as 2.1 nM; in assay [2] it was 630 nM.
